Laboratory results as given in patent publication US4952607A, “Copper complex for treating cancer” (priority 1986, dated 1990).

Tested on: Sarcoma 180 cells
Experiment: Tumor growth and survival of CF1 mice implanted with Sarcoma 180 cells
Format: in vivo
Procedure: Autopsies are performed on all dead animals.

“Orgotein: generic name for CuZnSOD derived from bovine liver” was tested, and the “fibroblast response around tumor” value (5th day after inoculation of tumor cells) was “development of a prominent fibroblast response in the area surrounding the tumor in some, but not all, of these animals” and the “tumor histology vs untreated cells” value (tumors developed from treated cells) was “no difference histologically”.
